The record followed here is article PMC10639050, “ZNF432 stimulates PARylation and inhibits DNA resection to balance PARPi sensitivity and resistance”.

By UniProt entry, the sequences of proteins in these tests, tags left out.
UniProt O94892: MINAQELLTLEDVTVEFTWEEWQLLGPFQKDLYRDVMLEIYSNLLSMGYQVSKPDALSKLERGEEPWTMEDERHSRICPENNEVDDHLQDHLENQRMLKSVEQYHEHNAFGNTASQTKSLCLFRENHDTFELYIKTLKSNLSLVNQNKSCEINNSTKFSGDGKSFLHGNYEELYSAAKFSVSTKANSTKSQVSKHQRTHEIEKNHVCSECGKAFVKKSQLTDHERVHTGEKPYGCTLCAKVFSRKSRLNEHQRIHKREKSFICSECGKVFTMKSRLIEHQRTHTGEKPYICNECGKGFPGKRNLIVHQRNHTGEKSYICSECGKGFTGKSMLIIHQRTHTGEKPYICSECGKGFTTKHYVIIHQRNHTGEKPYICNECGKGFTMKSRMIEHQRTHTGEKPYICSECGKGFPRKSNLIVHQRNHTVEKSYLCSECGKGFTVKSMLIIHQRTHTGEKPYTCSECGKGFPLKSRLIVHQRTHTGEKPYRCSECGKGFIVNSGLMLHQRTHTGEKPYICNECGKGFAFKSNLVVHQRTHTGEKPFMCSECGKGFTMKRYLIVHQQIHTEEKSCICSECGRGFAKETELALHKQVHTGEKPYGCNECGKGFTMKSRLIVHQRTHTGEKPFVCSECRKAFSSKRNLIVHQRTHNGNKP
UniProt P09874: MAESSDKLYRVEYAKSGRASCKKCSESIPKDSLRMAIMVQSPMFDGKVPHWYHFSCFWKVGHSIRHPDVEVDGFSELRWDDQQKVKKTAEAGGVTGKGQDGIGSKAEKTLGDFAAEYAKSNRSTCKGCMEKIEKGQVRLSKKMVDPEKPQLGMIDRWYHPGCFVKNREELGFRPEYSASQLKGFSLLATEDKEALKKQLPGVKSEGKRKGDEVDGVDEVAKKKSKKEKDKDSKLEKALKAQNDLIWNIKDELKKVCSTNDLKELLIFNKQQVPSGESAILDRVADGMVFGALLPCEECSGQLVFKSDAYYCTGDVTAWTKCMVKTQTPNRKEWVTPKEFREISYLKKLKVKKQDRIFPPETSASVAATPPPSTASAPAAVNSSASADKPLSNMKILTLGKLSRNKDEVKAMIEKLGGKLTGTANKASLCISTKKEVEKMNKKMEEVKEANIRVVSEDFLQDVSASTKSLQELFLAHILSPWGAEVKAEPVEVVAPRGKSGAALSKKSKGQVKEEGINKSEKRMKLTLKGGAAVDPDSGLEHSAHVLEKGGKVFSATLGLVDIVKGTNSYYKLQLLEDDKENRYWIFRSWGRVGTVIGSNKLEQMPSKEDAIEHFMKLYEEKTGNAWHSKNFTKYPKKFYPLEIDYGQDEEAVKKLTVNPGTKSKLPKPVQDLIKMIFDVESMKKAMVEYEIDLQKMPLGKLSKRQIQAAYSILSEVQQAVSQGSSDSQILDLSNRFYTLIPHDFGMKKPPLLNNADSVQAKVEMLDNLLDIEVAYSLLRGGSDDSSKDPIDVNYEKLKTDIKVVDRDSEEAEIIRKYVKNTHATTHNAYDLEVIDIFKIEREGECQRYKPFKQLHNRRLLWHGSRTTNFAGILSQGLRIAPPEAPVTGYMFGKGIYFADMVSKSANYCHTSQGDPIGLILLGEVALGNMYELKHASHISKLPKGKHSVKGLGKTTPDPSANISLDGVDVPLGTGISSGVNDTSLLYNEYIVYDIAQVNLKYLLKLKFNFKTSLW

The test deals with GFP-ZNF432 (expressed in HeLa cells) (human) (UniProt O94892). Briefly: pull-down; GFP-trap agarose beads on lysate of HeLa cells transfected with GFP-ZNF432, 10 Gy irradiation and 15 min recovery; 50 mM Tris-HCl pH 7.5, 150 mM NaCl, 0.5% NP-40, Benzonase 25 U/ml, 4°C for 4 h; Western blot.

Results are given in words; binding and its absence hold for the method and conditions named. In cells and extracts the contact can be indirect. Some results given as binding are weak or reduced against the parent protein; the word gives no strength.

For “poly(ADP-ribose) polymerase-1 (endogenous, HeLa) (from UniProt P09874 1-1014)”, the binding entry is given as “binds”.
